Test results taken from patent US20250197505A1.
No constants are given. Whether binding was seen depends on the method and setting. Some entries that bind do so weakly or less than the wild type.

Protein sequences, listed by entry. Tags and fused reporters are not part of them. Lines headed by an entry give the natural chain unless they say otherwise; changes in a name come on top. Residues count along the entry.
UniProt Q13241: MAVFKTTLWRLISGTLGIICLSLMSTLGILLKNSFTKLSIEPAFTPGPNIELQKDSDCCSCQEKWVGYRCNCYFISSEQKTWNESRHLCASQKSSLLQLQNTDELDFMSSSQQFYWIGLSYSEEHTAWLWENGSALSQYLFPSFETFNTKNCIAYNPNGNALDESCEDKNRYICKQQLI
human CD94 protein: residues 34-179 of Q13241

Each binder was assayed against human CD94 protein (human) (UniProt Q13241) (assay: OCTET BLI, Fab on human CD94 protein).

Binder	binding
Ab.27 Fab (Fab, V domains shown) VH: EVQLLESGGGLVKPGGSLRLSCAASGFTFSSYSMNWVRQAPGKGLEWVSSISTSSNFIYYADSVKGRFTISRDNAKNSLYLQMNSLRAEDTAVYYCARDLGRYYYYMDVWGKGTTVTVSS VL: DIVMTQSPSSLSASVGDRVTITCRASQSISSWLAWFQQKPGKAPKSLIYAASSLQSGVPSKFSGSGSGTDFTLTISSLQPEDVATYYCQKYNSAPFTFGPGTKVDIK	binds
Ab.29 Fab (Fab, V domains shown) VH: EVQLLESGGGLVKPGGSLRLSCAASGFTFSSYSMNWVRQAPGKGLEWVSSISTSSNFIYYADSVKGRFTISRDNAKNSLYLQMNSLRAEDTAVYYCARDLGRYYYYMDVWGKGTTVTVSS VL: DIVMTQSPSSLSASVGDRVTITCRASQSISSWLAWYQQKPGKVPKSLIYAASSLQSGVPSKFSGSGSGTDFTLTISSLQPEDVATYYCQKYNSAPFTFGPGTKVDIK	binds
Ab.26 Fab (Fab, V domains shown) VH: EVQLLESGGGLVKPGGSLRLSCAASGFTFSSYSMNWVRQAPGKGLEWVSSISTSSNFIYYADSVKGRFTISRDNAKNSLYLQMNSLRAEDTAVYYCARDLGRYYYYMDVWGKGTTVTVSS VL: DIQMTQSPSSLSASVGDRVTITCRASQSISSWLAWYQQKPGKAPKSLIYAASSLQSGVPSKFSGSGSGTDFTLTISSLQPEDVATYYCQKYNSAPFTFGPGTKVDIK	binds
Ab.24 Fab (Fab, V domains shown) VH: EVQLLESGGGLVKPGGSLRLSCAASGFTFSSYSMNWVRQAPGKGLEWVSSISTSSSFIYYADSVKGRFTISRDNAKNSLYLQMNSLRAEDTAVYYCARDLGRYYYYMDVWGKGTTVTVSS VL: DIVMTQSPSSLSASVGDRVTITCRASQSISSWLAWYQQKPGKAPKSLIYAASSLQSGVPSKFSGSGSGTDFTLTISSLQPEDVATYYCQKYNSAPFTFGPGTKVDIK	binds
Ab.28 Fab (Fab, V domains shown) VH: EVQLLESGGGLVKPGGSLRLSCAASGFTFSSYSMNWVRQAPGKGLEWVSSISTSSNFIYYADSVKGRFTISRDNAKNSLYLQMNSLRAEDTAVYYCARDLGRYYYYMDVWGKGTTVTVSS VL: DIVMTQSPSSLSASVGDRVTITCRASQSISSWLAWYQQKPEKAPKSLIYAASSLQSGVPSKFSGSGSGTDFTLTISSLQPEDVATYYCQKYNSAPFTFGPGTKVDIK	binds

Now from value to binder:

binding	Binder
binds	Ab.33 Fab (Fab, V domains shown) VH: EVQLLESGGGLVKPGGSLRLSCAASGFTFSSYSMNWVRQAPGKGLEWVSSISTSSNFIYYADSVKGRFTISRDNAKNSLYLQMNSLRAEDTAVYYCARDLGRYYYYMDVWGKGTTVTVSS VL: DIVMTQSPSSLSASVGDRVTITCRASQSISSWLAWYQQKPGKAPKSLIYAASSLQSGVPSKFSGSGSGTDFTLTISSLQPEDVATYYCQQYNSAPFTFGPGTKVDIK
binds	Ab.31 Fab (Fab, V domains shown) VH: EVQLLESGGGLVKPGGSLRLSCAASGFTFSSYSMNWVRQAPGKGLEWVSSISTSSNFIYYADSVKGRFTISRDNAKNSLYLQMNSLRAEDTAVYYCARDLGRYYYYMDVWGKGTTVTVSS VL: DIVMTQSPSSLSASVGDRVTITCRASQSISSWLAWYQQKPGKAPKSLIYAASSLQSGVPSRFSGSGSGTDFTLTISSLQPEDVATYYCQKYNSAPFTFGPGTKVDIK
binds	Ab.34 Fab (Fab, V domains shown) VH: EVQLLESGGGLVKPGGSLRLSCAASGFTFSSYSMNWVRQAPGKGLEWVSSISTSSNFIYYADSVKGRFTISRDNAKNSLYLQMNSLRAEDTAVYYCARDLGRYYYYMDVWGKGTTVTVSS VL: DIVMTQSPSSLSASVGDRVTITCRASQSISSWLAWYQQKPGKAPKSLIYAASSLQSGVPSKFSGSGSGTDFTLTISSLQPEDVATYYCQKYNSYPFTFGPGTKVDIK
binds	Ab.25 Fab (Fab, V domains shown) VH: EVQLLESGGGLVKPGGSLRLSCAASGFTFSSYSMNWVRQAPGKGLEWVSSISTSSNYIYYADSVKGRFTISRDNAKNSLYLQMNSLRAEDTAVYYCARDLGRYYYYMDVWGKGTTVTVSS VL: DIVMTQSPSSLSASVGDRVTITCRASQSISSWLAWYQQKPGKAPKSLIYAASSLQSGVPSKFSGSGSGTDFTLTISSLQPEDVATYYCQKYNSAPFTFGPGTKVDIK
binds	Ab.32 Fab (Fab, V domains shown) VH: EVQLLESGGGLVKPGGSLRLSCAASGFTFSSYSMNWVRQAPGKGLEWVSSISTSSNFIYYADSVKGRFTISRDNAKNSLYLQMNSLRAEDTAVYYCARDLGRYYYYMDVWGKGTTVTVSS VL: DIVMTQSPSSLSASVGDRVTITCRASQSISSWLAWYQQKPGKAPKSLIYAASSLQSGVPSKFSGSGSGTDFTLTISSLQPEDFATYYCQKYNSAPFTFGPGTKVDIK
binds	Ab.22 Fab (Fab, V domains shown) VH: EVQLVESGGGLVKPGGSLRLSCAASGFTFSSYSMNWVRQAPGKGLEWVSSISTSSNFIYYADSVKGRFTISRDNAKNSLYLQMNSLRAEDTAVYYCARDLGRYYYYMDVWGKGTTVTVSS VL: DIVMTQSPSSLSASVGDRVTITCRASQSISSWLAWYQQKPGKAPKSLIYAASSLQSGVPSKFSGSGSGTDFTLTISSLQPEDVATYYCQKYNSAPFTFGPGTKVDIK

Each binder was assayed against human CD94 expressed on cells (human primary NK cells in PBMCs; HEK cells expressing human CD94) (human) (UniProt Q13241) (assay: flow cytometry, human IgG1 on HEK cells expressing human CD94).

Binder	binding
Ab.33 hG1 (antibody, V domains shown) VH: EVQLLESGGGLVKPGGSLRLSCAASGFTFSSYSMNWVRQAPGKGLEWVSSISTSSNFIYYADSVKGRFTISRDNAKNSLYLQMNSLRAEDTAVYYCARDLGRYYYYMDVWGKGTTVTVSS VL: DIVMTQSPSSLSASVGDRVTITCRASQSISSWLAWYQQKPGKAPKSLIYAASSLQSGVPSKFSGSGSGTDFTLTISSLQPEDVATYYCQQYNSAPFTFGPGTKVDIK	binds
Ab.22 hG1 (antibody, V domains shown) VH: EVQLVESGGGLVKPGGSLRLSCAASGFTFSSYSMNWVRQAPGKGLEWVSSISTSSNFIYYADSVKGRFTISRDNAKNSLYLQMNSLRAEDTAVYYCARDLGRYYYYMDVWGKGTTVTVSS VL: DIVMTQSPSSLSASVGDRVTITCRASQSISSWLAWYQQKPGKAPKSLIYAASSLQSGVPSKFSGSGSGTDFTLTISSLQPEDVATYYCQKYNSAPFTFGPGTKVDIK	binds
Ab.25 hG1 (antibody, V domains shown) VH: EVQLLESGGGLVKPGGSLRLSCAASGFTFSSYSMNWVRQAPGKGLEWVSSISTSSNYIYYADSVKGRFTISRDNAKNSLYLQMNSLRAEDTAVYYCARDLGRYYYYMDVWGKGTTVTVSS VL: DIVMTQSPSSLSASVGDRVTITCRASQSISSWLAWYQQKPGKAPKSLIYAASSLQSGVPSKFSGSGSGTDFTLTISSLQPEDVATYYCQKYNSAPFTFGPGTKVDIK	binds
Ab.28 hG1 (antibody, V domains shown) VH: EVQLLESGGGLVKPGGSLRLSCAASGFTFSSYSMNWVRQAPGKGLEWVSSISTSSNFIYYADSVKGRFTISRDNAKNSLYLQMNSLRAEDTAVYYCARDLGRYYYYMDVWGKGTTVTVSS VL: DIVMTQSPSSLSASVGDRVTITCRASQSISSWLAWYQQKPEKAPKSLIYAASSLQSGVPSKFSGSGSGTDFTLTISSLQPEDVATYYCQKYNSAPFTFGPGTKVDIK	binds
Ab.24 hG1 (antibody, V domains shown) VH: EVQLLESGGGLVKPGGSLRLSCAASGFTFSSYSMNWVRQAPGKGLEWVSSISTSSSFIYYADSVKGRFTISRDNAKNSLYLQMNSLRAEDTAVYYCARDLGRYYYYMDVWGKGTTVTVSS VL: DIVMTQSPSSLSASVGDRVTITCRASQSISSWLAWYQQKPGKAPKSLIYAASSLQSGVPSKFSGSGSGTDFTLTISSLQPEDVATYYCQKYNSAPFTFGPGTKVDIK	binds

The remaining lines, values ahead:

binding	Binder
binds	Ab.27 hG1 (antibody, V domains shown) VH: EVQLLESGGGLVKPGGSLRLSCAASGFTFSSYSMNWVRQAPGKGLEWVSSISTSSNFIYYADSVKGRFTISRDNAKNSLYLQMNSLRAEDTAVYYCARDLGRYYYYMDVWGKGTTVTVSS VL: DIVMTQSPSSLSASVGDRVTITCRASQSISSWLAWFQQKPGKAPKSLIYAASSLQSGVPSKFSGSGSGTDFTLTISSLQPEDVATYYCQKYNSAPFTFGPGTKVDIK
binds	Ab.26 hG1 (antibody, V domains shown) VH: EVQLLESGGGLVKPGGSLRLSCAASGFTFSSYSMNWVRQAPGKGLEWVSSISTSSNFIYYADSVKGRFTISRDNAKNSLYLQMNSLRAEDTAVYYCARDLGRYYYYMDVWGKGTTVTVSS VL: DIQMTQSPSSLSASVGDRVTITCRASQSISSWLAWYQQKPGKAPKSLIYAASSLQSGVPSKFSGSGSGTDFTLTISSLQPEDVATYYCQKYNSAPFTFGPGTKVDIK
binds	Ab.32 hG1 (antibody, V domains shown) VH: EVQLLESGGGLVKPGGSLRLSCAASGFTFSSYSMNWVRQAPGKGLEWVSSISTSSNFIYYADSVKGRFTISRDNAKNSLYLQMNSLRAEDTAVYYCARDLGRYYYYMDVWGKGTTVTVSS VL: DIVMTQSPSSLSASVGDRVTITCRASQSISSWLAWYQQKPGKAPKSLIYAASSLQSGVPSKFSGSGSGTDFTLTISSLQPEDFATYYCQKYNSAPFTFGPGTKVDIK
binds	Ab.29 hG1 (antibody, V domains shown) VH: EVQLLESGGGLVKPGGSLRLSCAASGFTFSSYSMNWVRQAPGKGLEWVSSISTSSNFIYYADSVKGRFTISRDNAKNSLYLQMNSLRAEDTAVYYCARDLGRYYYYMDVWGKGTTVTVSS VL: DIVMTQSPSSLSASVGDRVTITCRASQSISSWLAWYQQKPGKVPKSLIYAASSLQSGVPSKFSGSGSGTDFTLTISSLQPEDVATYYCQKYNSAPFTFGPGTKVDIK
binds	Ab.31 hG1 (antibody, V domains shown) VH: EVQLLESGGGLVKPGGSLRLSCAASGFTFSSYSMNWVRQAPGKGLEWVSSISTSSNFIYYADSVKGRFTISRDNAKNSLYLQMNSLRAEDTAVYYCARDLGRYYYYMDVWGKGTTVTVSS VL: DIVMTQSPSSLSASVGDRVTITCRASQSISSWLAWYQQKPGKAPKSLIYAASSLQSGVPSRFSGSGSGTDFTLTISSLQPEDVATYYCQKYNSAPFTFGPGTKVDIK
binds	Ab.34 hG1 (antibody, V domains shown) VH: EVQLLESGGGLVKPGGSLRLSCAASGFTFSSYSMNWVRQAPGKGLEWVSSISTSSNFIYYADSVKGRFTISRDNAKNSLYLQMNSLRAEDTAVYYCARDLGRYYYYMDVWGKGTTVTVSS VL: DIVMTQSPSSLSASVGDRVTITCRASQSISSWLAWYQQKPGKAPKSLIYAASSLQSGVPSKFSGSGSGTDFTLTISSLQPEDVATYYCQKYNSYPFTFGPGTKVDIK
